Assay [1] deals with RIP1 (transfected, tag not told) (UniProt Q13546). The assay is described as follows: co-IP; HEK293T transiently transfected, 24 h, with or without TNFα (10 ng/ml) for the indicated time; IP with anti-Flag, 4 h at 4°C; IP lysis buffer (150 mM NaCl, 20 mM tris-HCl pH 7.5, 0.5% Triton X-100, 0.5% NP-40); Western blot.
The target of assay [2] is TNFR1 (transfected, tag not told) (UniProt P19438). The description is as above.
For assay [3], the target named is cIAP1 (UniProt Q13490). The description is as above.
The target of assay [4] is GST-HSPA13 (UniProt P48723). In words: pull-down; purified GST-HSPA13 with in vitro translated protein, 2 h in GST-binding buffer (150 mM NaCl, 50 mM tris-HCl pH 7.5, 0.5% NP-40); Western blot; only the target purified.

The chains behind the UniProt entries cited, without tags or fusion partners. Where a name states a change or a piece, a line headed by the entry shows the natural chain unless it says otherwise.
UniProt Q13546: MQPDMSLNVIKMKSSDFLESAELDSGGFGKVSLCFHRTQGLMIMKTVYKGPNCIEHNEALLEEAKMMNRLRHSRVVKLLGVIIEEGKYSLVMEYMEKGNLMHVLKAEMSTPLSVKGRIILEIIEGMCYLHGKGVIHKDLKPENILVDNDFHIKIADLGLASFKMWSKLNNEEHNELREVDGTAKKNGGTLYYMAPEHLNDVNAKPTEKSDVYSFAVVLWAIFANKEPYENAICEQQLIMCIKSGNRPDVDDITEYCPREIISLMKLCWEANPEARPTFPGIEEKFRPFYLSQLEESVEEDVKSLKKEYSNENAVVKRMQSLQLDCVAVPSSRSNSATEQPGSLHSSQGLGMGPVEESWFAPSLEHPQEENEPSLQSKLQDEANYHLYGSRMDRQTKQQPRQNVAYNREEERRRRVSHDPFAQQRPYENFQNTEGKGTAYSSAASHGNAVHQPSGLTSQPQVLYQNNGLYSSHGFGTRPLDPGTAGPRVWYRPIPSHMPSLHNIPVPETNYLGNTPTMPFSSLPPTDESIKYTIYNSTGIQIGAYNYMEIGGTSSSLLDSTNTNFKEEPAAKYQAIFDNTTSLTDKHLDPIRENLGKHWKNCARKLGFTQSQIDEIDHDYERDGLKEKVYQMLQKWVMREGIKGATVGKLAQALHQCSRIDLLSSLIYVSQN
UniProt P19438: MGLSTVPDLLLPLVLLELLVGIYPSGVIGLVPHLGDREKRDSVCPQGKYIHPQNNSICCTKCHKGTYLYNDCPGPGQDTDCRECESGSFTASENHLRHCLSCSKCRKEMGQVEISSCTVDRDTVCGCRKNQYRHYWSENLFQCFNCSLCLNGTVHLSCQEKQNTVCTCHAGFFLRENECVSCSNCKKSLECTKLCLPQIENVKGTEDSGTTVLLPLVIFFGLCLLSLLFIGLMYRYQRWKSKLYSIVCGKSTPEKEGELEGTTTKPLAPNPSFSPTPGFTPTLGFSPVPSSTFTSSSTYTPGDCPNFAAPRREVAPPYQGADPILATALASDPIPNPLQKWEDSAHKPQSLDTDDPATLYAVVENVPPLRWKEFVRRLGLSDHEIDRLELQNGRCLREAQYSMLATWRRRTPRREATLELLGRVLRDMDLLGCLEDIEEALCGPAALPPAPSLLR
UniProt Q13490: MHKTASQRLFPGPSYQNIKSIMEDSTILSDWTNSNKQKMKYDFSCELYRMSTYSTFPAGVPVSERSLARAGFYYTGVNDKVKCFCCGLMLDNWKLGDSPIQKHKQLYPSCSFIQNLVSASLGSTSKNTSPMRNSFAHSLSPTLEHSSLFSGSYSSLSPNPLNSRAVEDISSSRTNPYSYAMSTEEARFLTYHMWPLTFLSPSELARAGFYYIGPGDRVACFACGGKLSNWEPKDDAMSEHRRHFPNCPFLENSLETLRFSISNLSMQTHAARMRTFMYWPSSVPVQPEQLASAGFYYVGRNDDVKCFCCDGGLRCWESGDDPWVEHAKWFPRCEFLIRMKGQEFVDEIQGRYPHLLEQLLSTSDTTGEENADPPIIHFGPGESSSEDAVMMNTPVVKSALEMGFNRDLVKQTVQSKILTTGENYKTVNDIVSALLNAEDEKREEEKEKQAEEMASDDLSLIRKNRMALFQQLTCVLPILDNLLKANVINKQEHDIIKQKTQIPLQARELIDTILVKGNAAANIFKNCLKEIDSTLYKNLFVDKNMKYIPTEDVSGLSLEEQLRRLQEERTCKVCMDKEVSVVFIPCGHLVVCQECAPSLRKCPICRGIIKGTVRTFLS
UniProt P48723: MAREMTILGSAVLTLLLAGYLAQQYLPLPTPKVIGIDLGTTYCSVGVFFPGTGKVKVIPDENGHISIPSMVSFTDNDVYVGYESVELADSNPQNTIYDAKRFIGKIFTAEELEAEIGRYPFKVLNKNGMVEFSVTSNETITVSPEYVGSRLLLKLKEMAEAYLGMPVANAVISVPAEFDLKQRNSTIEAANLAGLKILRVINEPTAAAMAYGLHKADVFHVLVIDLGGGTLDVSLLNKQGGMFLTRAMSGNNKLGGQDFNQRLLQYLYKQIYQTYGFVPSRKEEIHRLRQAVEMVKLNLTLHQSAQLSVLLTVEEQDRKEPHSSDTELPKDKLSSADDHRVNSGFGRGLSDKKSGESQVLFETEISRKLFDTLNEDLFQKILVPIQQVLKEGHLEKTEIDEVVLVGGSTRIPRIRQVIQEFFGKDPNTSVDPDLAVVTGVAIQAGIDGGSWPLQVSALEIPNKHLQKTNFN

No constants are given. Whether binding was seen depends on the method and setting. Binding seen in cells or lysates may run through a third protein. A result given as binding can be weak or reduced; the word gives no strength.

Regarding “HSPA13 (transfected, tag not told) (from UniProt P48723)”, the binding entry in assay [1] is given as “binds”; in assay [2] it was “binds”; in assay [3], “binds weakly”.
On to “in vitro translated RIP1 (from UniProt Q13546 1-671)”, for which, in assay [4], the binding entry is recorded as “binds”.
Still for that read-out and setting: for “in vitro translated TNFR1 (from UniProt P19438 1-455) (receptor)” the value was “binds”.

For the origin of these results see publication PMC8494447.
